Data source: PubChem BioAssay AID1259254 (NCATS, 2017)
Here is an unselected part of about 59,000 reagents tested. About 1,550 of them (2.6%) were called active. 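G2 share is only a proxy for re-replication; each gene was hit by three separate siRNAs, and active genes were retested.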 Reagents against one gene are numbered here. Not all columns of the deposit are shown. The record does not give: the amount of reagent.

Purpose: 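Finding genes that stop cells copying their DNA twice in one cycle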 (primary screen)
Cell system: human HCT116 colorectal cancer cells
Reagents: single siRNA against human genes
Timing: 3 days
Measured: 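Imaged Hoechst DNA stain sorts each cell into a cycle phase by DNA amount; per plate, G2 fraction set to 0% for non-targeting and 100% for GMNN siRNA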
Scale: G2 robust z-score and G2 cells, % of GMNN control: higher = more G2 cells, more excess DNA replication
Rule for the call: 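Active siRNAs have a G2 robust z of 5 or more median absolute deviations over the median, which in these data means about 38% or higher of GMNN control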

For ATPAF2 (ATP synthase mitochondrial F1 complex assembly factor 2) #1 the deposit lists G2 robust z-score -0.195; G2 cells, % of GMNN control 1.6; inactive.
ATPAF2 (ATP synthase mitochondrial F1 complex assembly factor 2) #2 scored G2 robust z-score 4.59; G2 cells, % of GMNN control 35.2; inactive.
Knock-down of ATPAF2 (ATP synthase mitochondrial F1 complex assembly factor 2) #3 resulted in: G2 robust z-score 1.99; G2 cells, % of GMNN control 16.9; inactive.
FCGR2B (Fc gamma receptor IIb) #1 showed G2 robust z-score -0.769; G2 cells, % of GMNN control -2.44; inactive.
Knock-down of FCGR2B (Fc gamma receptor IIb) #2 came out at: G2 robust z-score 0.447; G2 cells, % of GMNN control 6.11; inactive.
With knock-down of FCGR2B (Fc gamma receptor IIb) #3, the screen gave G2 robust z-score -1.01; G2 cells, % of GMNN control -4.11; inactive.
After knock-down of XG (Xg glycoprotein (Xg blood group)) #1, the screen gave G2 robust z-score 3.15; G2 cells, % of GMNN control 25.1; inactive.
XG (Xg glycoprotein (Xg blood group)) #2 scored G2 robust z-score 0.274; G2 cells, % of GMNN control 4.9; inactive.
XG (Xg glycoprotein (Xg blood group)) #3 gave G2 robust z-score 0.126; G2 cells, % of GMNN control 3.85; inactive.
Against SFT2D2 (SFT2 domain containing 2) #1, the values are G2 robust z-score -0.658; G2 cells, % of GMNN control -1.66; inactive.
With knock-down of SFT2D2 (SFT2 domain containing 2) #2, the screen gave G2 robust z-score -0.626; G2 cells, % of GMNN control -1.44; inactive.
SFT2D2 (SFT2 domain containing 2) #3 showed G2 robust z-score 0.685; G2 cells, % of GMNN control 7.79; inactive.

Ordered by “G2 robust z-score” (high to low): some entries from above
XG (Xg glycoprotein (Xg blood group)) #2 — G2 robust z-score = 0.274; G2 cells, % of GMNN control = 4.9; outcome = inactive
XG (Xg glycoprotein (Xg blood group)) #3 — G2 robust z-score = 0.126; G2 cells, % of GMNN control = 3.85; outcome = inactive
